Test results: PubChem BioAssay AID248 (DTP/NCI, 2004)
The list does not hold the whole screen: it gathers tests that were run many times, whatever their T/C, doses with no T/C, and many T/C values between a quarter and a half above the control. Further doses and runs are listed elsewhere. T/C is the treated group as % of the vehicle group. Some entries give survivors of the animals treated and no T/C: the source holds a T/C of zero for them, seemingly a mark for toxic or unscored doses. Some survivor counts are full or nearly so, which does not show that the dose was tolerated: the source hardly ever lists a survival T/C far under the control, and the zero likely stands for such cases as well. Counts of survivors are from the toxicity check (mostly the fifth day) where no day follows; animals may have died later. Schedule codes are those of the source, taken here to give the interval after Q, in days (D) or hours (H), and the number of doses after X. Signs of the kind (2×) give the number of equal values in this list. Some entries hold several experiments; the values are given in rising order. Some schedule codes hold Z or #, which are not explained here. Where survival is the endpoint, this PubChem deposit counts one and a half times the control or more as active, and values a quarter to a half above the control carry no call in these data; other NCI protocols may use other cut-offs. Some T/C values are followed by the survivors on the day toxicity was checked, most often the fifth; where none is given, no animal had died by that day.

System: L1210 leukemia ip in BDF1 mice, survival T/C
Experiment: NCI In Vivo Anticancer Drug Screen. Data for tumor model L1210 Leukemia (intraperitoneal) in B6D2F1 (BDF1) mice
Conditions: T/C endpoint: mean survival time, higher T/C = longer survival
[1] = dose: 100.0 mg/kg/injection, schedule: Q01DX009 (ip), vehicle: saline
[2] = dose: 200.0 mg/kg/injection, schedule: Q01DX009 (ip), vehicle: saline
[3] = dose: 400.0 mg/kg/injection, schedule: Q04DX003 (ip), vehicle: water
[4] = dose: 400.0 mg/kg/injection, schedule: Q04DX002 (ip), vehicle: saline
[5] = dose: 400.0 mg/kg/injection, schedule: Q04DX003 (ip), vehicle: saline with Tween-80
[6] = dose: 80.0 mg/kg/injection, schedule: Q01DX001 (ip), vehicle: saline
[7] = dose: 100.0 mg/kg/injection, schedule: Q01DX001 (ip), vehicle: saline
[8] = dose: 200.0 mg/kg/injection, schedule: Q01DX001 (ip), vehicle: saline
[9] = dose: 400.0 mg/kg/injection, schedule: Q01DX001 (ip), vehicle: saline
[10] = dose: 400.0 mg/kg/injection, schedule: Q04DX003 (ip), vehicle: saline
[11] = dose: 400.0 mg/kg/injection, schedule: Q01DX009 (ip), vehicle: Klucel (hydroxypropylcellulose) (HPC)
[12] = dose: 400.0 mg/kg/injection, schedule: Q01DX009 (ip), vehicle: saline with Tween-80
[13] = dose: 400.0 mg/kg/injection, schedule: Q01DX009 (ip), vehicle: saline

Question: `Cl[CH2][Sn]([c]1ccccc1)([c]1ccccc1)[c]1ccccc1` was tested. Which survivor count (dose: 25.0 mg/kg/injection, schedule: Q01DX009 (ip), vehicle: saline) did it give?
Answer: Its survivor count is 3 of 3.

Question: What about the survivor count (dose: 50.0 mg/kg/injection, schedule: Q01DX009 (ip), vehicle: saline) of the same compound?
Answer: Its survivor count is 2 of 3.

Question: What about the survivor count [1] of the same compound?
Answer: The survivor count was 0 of 3.

Question: What about the survivor count [2] of the same compound?
Answer: Its survivor count is 0 of 3.

Question: Which survivor count (dose: 50.0 mg/kg/injection, schedule: Q01DX009 (ip), vehicle: water) does the source give for `CCCC[N+](CCCC)=c1cc(-c2ccc(Cl)cc2)ss1` here?
Answer: Its survivor count is 4 of 6.

Question: What about the survivor count (dose: 100.0 mg/kg/injection, schedule: Q01DX009 (ip), vehicle: water) of the same compound?
Answer: Its survivor count is 0 of 6.

Question: And the survivor count (dose: 200.0 mg/kg/injection, schedule: Q01DX009 (ip), vehicle: water)?
Answer: Its survivor count is 0 of 6.

Question: And the survivor count (dose: 300.0 mg/kg/injection, schedule: Q01DX009 (ip), vehicle: water)?
Answer: Its survivor count is 0 of 6.

Question: And the survivor count [3]?
Answer: Its survivor count is 0 of 6.

Question: Which results are given for `CN1C(=O)N(C)C(=O)C(O)(C2(O)C(=O)N(C)C(=O)N(C)C2=O)C1=O`?
Answer: survivor count (dose: 75.0 mg/kg/injection, schedule: Q01DX001 (ip), vehicle: other): 3 of 6; survivor count (dose: 150.0 mg/kg/injection, schedule: Q01DX001 (ip), vehicle: other): 0 of 6; survivor count (dose: 300.0 mg/kg/injection, schedule: Q01DX001 (ip), vehicle: other): 0 of 6

Question: How did the survivor count [4] turn out when `CCC12C=CCN3CCC4(C(=C(C(=O)OC)C1)Nc1cc(OC)ccc14)C32` (stereo not given) was run?
Answer: The survivor count was 0 of 3.

Question: With `CCCCCCCCCCCCOCC[N+](C/C=C/c1ccccc1)(CCO)CCO` as the compound, how does the survivor count (dose: 25.0 mg/kg/injection, schedule: Q01DX009 (ip), vehicle: saline with Tween-80) read?
Answer: The survivor count was 2 of 6.

Question: Which survivor count (dose: 200.0 mg/kg/injection, schedule: Q04DX003 (ip), vehicle: saline with Tween-80) does the source give for `C(#CCN1CCCC1)CCCN1CCCC1` here?
Answer: The survivor count was 0 of 6.

Question: And the survivor count [5]?
Answer: The survivor count was 0 of 6.

Question: Which results are given for `OC(c1cccc(C(O)(C(F)(F)F)C(F)(F)F)c1)(C(F)(F)F)C(F)(F)F`?
Answer: survivor count [6]: 3 of 6; survivor count [7]: 0 of 4; survivor count [8]: 0 of 4; survivor count [9]: 0 of 4

Question: Which survivor count (dose: 200.0 mg/kg/injection, schedule: Q01DX009 (ip), vehicle: saline with Tween-80) does the source give for `OC(C1CCCCN1)C12CC3CC(CC(C3)C1)C2` (stereo not given) here?
Answer: Its survivor count is 0 of 6.

Question: And the survivor count [5]?
Answer: The survivor count was 0 of 6.

Question: With `O=[N+]([O-])C(CO)(CO)CC(F)(F)F` as the compound, how does the survivor count (dose: 100.0 mg/kg/injection, schedule: Q04DX003 (ip), vehicle: saline) read?
Answer: Its survivor count is 0 of 6.

Question: And the survivor count (dose: 200.0 mg/kg/injection, schedule: Q04DX003 (ip), vehicle: saline)?
Answer: Its survivor count is 0 of 6.

Question: And the survivor count [10]?
Answer: Its survivor count is 0 of 6.

Question: What does the source list for `NC(N)=N/N=C\c1ccc2c(c1)OCO2`?
Answer: survivor count (dose: 120.0 mg/kg/injection, schedule: Q01DX Z (ip), vehicle: saline): 0 of 6; survivor count (dose: 240.0 mg/kg/injection, schedule: Q01DX Z (oral), vehicle: saline): 0 of 6

Question: How did the survivor count [10] turn out when `O=C(N1CCOCC1)C1(c2ccccc2)CCNCC1` was run?
Answer: Its survivor count is 2 of 6.

Question: `O=C1NC(=O)C2C3CCC(O3)C12` (stereo not given) was tested. Which T/C (dose: 100.0 mg/kg/injection, schedule: Q04DX002 (ip), vehicle: Klucel (hydroxypropylcellulose) (HPC)) did it give?
Answer: Its T/C is 130 % of control.

Question: What about the survivor count (dose: 200.0 mg/kg/injection, schedule: Q04DX002 (ip), vehicle: Klucel (hydroxypropylcellulose) (HPC)) of the same compound?
Answer: Its survivor count is 2 of 3 (2×).

Question: What about the survivor count (dose: 400.0 mg/kg/injection, schedule: Q04DX002 (ip), vehicle: Klucel (hydroxypropylcellulose) (HPC)) of the same compound?
Answer: The survivor count was 0 of 3 (2×).

Question: How did the survivor count (dose: 25.0 mg/kg/injection, schedule: Q04DX002 (ip), vehicle: saline with Tween-80) turn out when `CC(C)(C)[CH2][Sn]([Cl])([CH2]C(C)(C)C)[CH2]C(C)(C)C` was run?
Answer: Its survivor count is 1 of 6.

Question: And the survivor count (dose: 50.0 mg/kg/injection, schedule: Q04DX002 (ip), vehicle: saline with Tween-80)?
Answer: Its survivor count is 4 of 6.

Question: Which survivor count [11] does the source give for `CC(C)(C)C1C(=O)N1C(C)(C)C` (stereo not given) here?
Answer: Its survivor count is 1 of 6.

Question: Which survivor count (dose: 25.0 mg/kg/injection, schedule: Q01DX009 (ip), vehicle: water) does the source give for `C[n+]1c(-c2ccc(Cl)c(Cl)c2)c2cc(N)ccc2c2ccccc21` here?
Answer: The survivor count was 6 of 6.

Question: And the survivor count (dose: 50.0 mg/kg/injection, schedule: Q04DX003 (ip), vehicle: water)?
Answer: Its survivor count is 5 of 6.

Question: What about the survivor count (dose: 100.0 mg/kg/injection, schedule: Q04DX003 (ip), vehicle: water) of the same compound?
Answer: Its survivor count is 0 of 6.

Question: And the survivor count (dose: 200.0 mg/kg/injection, schedule: Q04DX003 (ip), vehicle: water)?
Answer: The survivor count was 0 of 6.

Question: What about the survivor count [3] of the same compound?
Answer: Its survivor count is 0 of 6.

Question: With `Cc1c2oc3c(C)ccc(C(=O)OCCN4CCCCC4)c3nc-2c(C(=O)OCCN2CCCCC2)c(N)c1=O` as the compound, how does the survivor count (dose: 400.0 mg/kg/injection, schedule: Q04DX002 (ip), vehicle: saline with Tween-80) read?
Answer: The survivor count was 1 of 3.

Question: `Cn1c(Cl)nc2c(Cl)nc(Cl)nc21` was tested. Which survivor count (dose: 25.0 mg/kg/injection, schedule: Q01DX009 (ip), vehicle: Klucel (hydroxypropylcellulose) (HPC)) did it give?
Answer: The survivor count was 3 of 6.

Question: And the survivor count (dose: 50.0 mg/kg/injection, schedule: Q01DX009 (ip), vehicle: Klucel (hydroxypropylcellulose) (HPC))?
Answer: Its survivor count is 0 of 6.

Question: With `O=CNNc1ccc([N+](=O)[O-])cc1` as the compound, how does the survivor count [11] read?
Answer: The survivor count was 1 of 6.

Question: `CC12CC3(C)CC(C)(C1)CC(NC(=O)N(CCF)N=O)(C2)C3` was tested. Which T/C (dose: 60.0 mg/kg/injection, schedule: Q01DX001 (ip), vehicle: other) did it give?
Answer: Its T/C is 127 % of control.

Question: What about the T/C (dose: 93.0 mg/kg/injection, schedule: Q01DX001 (ip), vehicle: other) of the same compound?
Answer: Its T/C is 136 % of control.

Question: And the T/C (dose: 250.0 mg/kg/injection, schedule: Q01DX001 (ip), vehicle: other)?
Answer: The T/C was 141 % of control [4 of 5 alive].

Question: And the survivor count (dose: 500.0 mg/kg/injection, schedule: Q01DX001 (ip), vehicle: other)?
Answer: The survivor count was 3 of 6.

Question: What about the survivor count (dose: 750.0 mg/kg/injection, schedule: Q01DX001 (ip), vehicle: other) of the same compound?
Answer: Its survivor count is 1 of 6.

Question: With `CCOCc1nc(N)nc(N)c1-c1cccc(Cl)c1` as the compound, how does the survivor count [12] read?
Answer: The survivor count was 0 of 6.

Question: `C=C1C(=O)OC2CC(C)C3CC(=O)C(C)=C3C(O)C12` (stereo not given) was tested. Which survivor count [1] did it give?
Answer: The survivor count was 1 of 3.

Question: And the survivor count (dose: 100.0 mg/kg/injection, schedule: Q04DX002 (ip), vehicle: saline)?
Answer: The survivor count was 1 of 3.

Question: And the survivor count (dose: 200.0 mg/kg/injection, schedule: Q04DX002 (ip), vehicle: saline)?
Answer: The survivor count was 0 of 3.

Question: What about the survivor count [4] of the same compound?
Answer: The survivor count was 0 of 3.

Question: With `c1cc[c]([Sn]([c]2ccccc2)([c]2ccccc2)[n]2cnc3cncnc32)cc1` as the compound, how does the T/C (dose: 20.0 mg/kg/injection, schedule: Q01DX001 (ip), vehicle: other) read?
Answer: Its T/C is 125 % of control [4 of 6 alive].

Question: And the survivor count (dose: 40.0 mg/kg/injection, schedule: Q01DX001 (ip), vehicle: other)?
Answer: Its survivor count is 1 of 6.

Question: And the survivor count (dose: 80.0 mg/kg/injection, schedule: Q01DX001 (ip), vehicle: other)?
Answer: Its survivor count is 0 of 6.

Question: What about the survivor count (dose: 100.0 mg/kg/injection, schedule: Q01DX001 (ip), vehicle: other) of the same compound?
Answer: Its survivor count is 0 of 6.

Question: What about the survivor count (dose: 200.0 mg/kg/injection, schedule: Q01DX001 (ip), vehicle: other) of the same compound?
Answer: Its survivor count is 0 of 6.

Question: And the survivor count (dose: 400.0 mg/kg/injection, schedule: Q01DX001 (ip), vehicle: other)?
Answer: Its survivor count is 1 of 6.

Question: `Cc1cc(-c2ccccc2)c2ccccc2c1N(CC(=O)O)S(=O)(=O)c1ccccc1` was tested. Which survivor count [12] did it give?
Answer: Its survivor count is 4 of 6.

Question: What does the source list for `O=[N+]([O-])c1ccc(C2=CSC3=NCCN23)cc1`?
Answer: survivor count [6]: 1 of 4; survivor count [7]: 0 of 6; survivor count [1]: 3 of 6 and 2 of 3; survivor count [8]: 0 of 6; survivor count [2]: 0 of 6; survivor count [9]: 0 of 6; survivor count [13]: 0 of 6

Question: What does the source list for `CCN(CC)CCC(CNC(=O)CN(CC)CC)(c1cccc2ccccc12)C(C)C` (stereo not given)?
Answer: survivor count [1]: 1 of 6; survivor count [2]: 0 of 6; survivor count [13]: 0 of 6
